Assay results published in the supplement of paper PMC8728848.
The list shows a part of the results.

Key:
Experiment in all cases: glycan array binding signal (z-score within array); higher = stronger binding
Settings in all cases: glycan notation: IUPAC condensed, linker removed
[1] = molecular target: Gal(b1-4)GlcNAc(b1-2)Man(a1-3)[Gal(b1-4)GlcNAc(b1-2)Man(a1-6)][Gal(b1-4)GlcNAc(b1-4)]Man(b1-4)GlcNAc(b1-4)[Fuc(a1-6)]GlcNAc
How it was run: (§1)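 Glycan array data came from 3228 arrays in the Consortium for Functional Glycomics database, and only arrays with an available protein sequence were kept. Glycan names were put into IUPAC-condensed notation, and columns mapping to the same glycan were averaged. The binding signal is a within-array Z-score, averaged across arrays of one protein sequence run at different concentrations or buffers and across linkers. A negative Z-score can be read as non-binding.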

[2] = molecular target: Gal(b1-4)GlcNAc(b1-2)Man(a1-3)[Gal(b1-4)GlcNAc(b1-2)Man(a1-6)][GlcNAc(b1-4)]Man(b1-4)GlcNAc(b1-4)[Fuc(a1-6)]GlcNAc
How it was run: as §1

[3] = molecular target: Gal(b1-4)GlcNAc(b1-2)Man(a1-3)[Gal(b1-4)GlcNAc(b1-2)][GlcNAc(b1-4)]Man(b1-4)GlcNAc(b1-4)GlcNAc
How it was run: as §1

[4] = molecular target: Gal(b1-4)GlcNAc(b1-2)Man(a1-3)[GlcNAc(b1-2)Man(a1-6)]Man(b1-4)GlcNAc(b1-4)GlcNAc
How it was run: as §1

[5] = molecular target: Gal(b1-4)GlcNAc(b1-2)Man(a1-3)[GlcNAc(b1-4)][Gal(b1-4)GlcNAc(b1-2)Man(a1-6)]Man(b1-4)GlcNAc(b1-4)GlcNAc
How it was run: as §1

[6] = molecular target: Gal(b1-4)GlcNAc(b1-2)Man(a1-3)[Man(a1-6)]Man(b1-4)GlcNAc(b1-4)GlcNAc
How it was run: as §1

[7] = molecular target: Gal(b1-4)GlcNAc(b1-2)Man(a1-6)Man(b1-4)GlcNAc(b1-4)GlcNAc
How it was run: as §1

[8] = molecular target: Gal(b1-4)GlcNAc(b1-2)Man(a1-6)[GlcNAc(b1-2)Man(a1-3)]Man(b1-4)GlcNAc(b1-4)GlcNAc
How it was run: as §1

[9] = molecular target: Gal(b1-4)GlcNAc(b1-2)Man(a1-6)[Man(a1-3)]Man(b1-4)GlcNAc(b1-4)GlcNAc
How it was run: as §1

[10] = molecular target: Gal(b1-4)GlcNAc(b1-2)[Gal(b1-4)GlcNAc(b1-4)]Man(a1-3)[Gal(b1-4)GlcNAc(b1-2)Man(a1-6)]Man(b1-4)GlcNAc(b1-4)GlcNAc
How it was run: as §1

[11] = molecular target: Gal(b1-4)GlcNAc(b1-2)[Gal(b1-4)GlcNAc(b1-4)]Man(a1-3)[Gal(b1-4)GlcNAc(b1-2)[Gal(b1-4)GlcNAc(b1-6)]Man(a1-6)]Man(b1-4)GlcNAc(b1-4)GlcNAc
How it was run: as §1

[12] = molecular target: Gal(b1-4)GlcNAc(b1-2)[Gal(b1-4)GlcNAc(b1-4)]Man(a1-3)[GlcNAc(b1-4)][Gal(b1-4)GlcNAc(b1-2)Man(a1-6)]Man(b1-4)GlcNAc(b1-4)GlcNAc
How it was run: as §1

[13] = molecular target: Gal(b1-4)GlcNAc(b1-2)[Gal(b1-4)GlcNAc(b1-4)]Man(a1-3)[GlcNAc(b1-4)][Gal(b1-4)GlcNAc(b1-2)[Gal(b1-4)GlcNAc(b1-6)]Man(a1-6)]Man(b1-4)GlcNAc(b1-4)GlcNAc
How it was run: as §1

[14] = molecular target: Gal(b1-4)GlcNAc(b1-2)[Gal(b1-4)GlcNAc(b1-4)]Man(a1-3)[GlcNAc(b1-4)][Gal(b1-4)GlcNAc(b1-2)[Gal(b1-4)GlcNAc(b1-6)]Man(a1-6)]Man(b1-4)GlcNAc(b1-4)[Fuc(a1-6)]GlcNAc
How it was run: as §1

[15] = molecular target: Gal(b1-4)GlcNAc(b1-2)[Gal(b1-4)GlcNAc(b1-6)]Man(a1-6)[Gal(b1-4)GlcNAc(b1-2)Man(a1-3)]Man(b1-4)GlcNAc(b1-4)GlcNAc
How it was run: as §1

[16] = molecular target: Gal(b1-4)GlcNAc(b1-2)[Gal(b1-4)GlcNAc(b1-6)]Man(a1-6)[Gal(b1-4)GlcNAc(b1-2)Man(a1-3)]Man(b1-4)GlcNAc(b1-4)[Fuc(a1-6)]GlcNAc
How it was run: as §1

[17] = molecular target: Gal(b1-4)GlcNAc(b1-2)[Gal(b1-4)GlcNAc(b1-6)]Man(a1-6)[GlcNAc(b1-4)][Gal(b1-4)GlcNAc(b1-2)Man(a1-3)]Man(b1-4)GlcNAc(b1-4)GlcNAc
How it was run: as §1

[18] = molecular target: Gal(b1-4)GlcNAc(b1-2)[Gal(b1-4)GlcNAc(b1-6)]Man(a1-6)[GlcNAc(b1-4)][Gal(b1-4)GlcNAc(b1-2)[Gal(b1-4)GlcNAc(b1-4)]Man(a1-3)]Man(b1-4)GlcNAc(b1-4)[Fuc(a1-6)]GlcNAc
How it was run: as §1

[19] = molecular target: Gal(b1-4)GlcNAc(b1-3)Gal(b1-3)GalNAc
How it was run: as §1

B1: LlpA1 (Pseudomonas fluorescens), Q4KHC3 (protein)
chain: MGSSHHHHHHSSGLVPRGSHMAWIRYDFTDNGSSVLPARYYMAPNQYLQSPNKRFKLLFQADGNLALYDGAQLAWVADQNTPFTNVSKGNKKDPMMVFMNYGFVLDDPLRGRIWSTTPSDPTMGSREDASLRAFTQVQDDGNIVTVDTIPHWYAPNGRVFTPAVGAAMIIGGTTELVPGQFYSAGEHSLVFQGDGNLVVYGPNSSVIWATYTQNKGGVRCVMQEDGNLVIYAANNGVVWQSGTGGHPGATIRLQANGSFTIVTERPVWARFGYTPTIKPPRVFYPDHKWKTGSYTWNNVF
[1]
  glycan array binding signal (z-score): -0.199
[2]
  glycan array binding signal (z-score): -0.519
[3]
  glycan array binding signal (z-score): -0.552
[4]
  glycan array binding signal (z-score): 0.504
[5]
  glycan array binding signal (z-score): -0.797
[6]
  glycan array binding signal (z-score): 0.245
[7]
  glycan array binding signal (z-score): -0.525
[8]
  glycan array binding signal (z-score): -0.122
[9]
  glycan array binding signal (z-score): 0.108
[10]
  glycan array binding signal (z-score): -0.463
[11]
  glycan array binding signal (z-score): 0.257
[12]
  glycan array binding signal (z-score): -0.265
[13]
  glycan array binding signal (z-score): 0.115
[14]
  glycan array binding signal (z-score): 2.29
[15]
  glycan array binding signal (z-score): 0.085
[16]
  glycan array binding signal (z-score): 0.344
[17]
  glycan array binding signal (z-score): 0.086
[18]
  glycan array binding signal (z-score): 0.161
[19]
  glycan array binding signal (z-score): -0.388
